Laboratory results: PubChem BioAssay AID1487 (National Center for Advancing Translational Sciences (NCATS), 2009)
Values joined by “and” are separate entries in the source; they are usually repeats but may differ in a detail not shown here. Identical values can stand only once. Some of the results follow. These are further read-outs of the screen, such as a control signal, another cell line or another target. No call is given for them. Most of these compounds were active or inconclusive in the main read-out, so they are no random draw. The note in brackets gives the kind of curve behind each potency; many fits are weak.

Assay: qHTS Assay for Modulators of Lamin A Splicing
Conditions: HeLa LMNA splicing GFP/RFP minigene ratio, 48 h
How it was run: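 S3 HeLa stable clones carrying a lamin A-EGFP splicing minigene plus DsRed2 were seeded at 600 cells/well in Opti-MEM with 2% FBS, pin-dosed and incubated 48 h at 37°C. Acumen cytometry (488 nm) gave the GFP/RFP total-intensity ratio.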

[1] = measured here: GFP splicing reporter channel
[2] = measured here: RFP viability control channel

SMILES	AC50 [1]	AC50 [2]
CCOc1cccc(NC(=O)C2CCCN(S(=O)(=O)c3ccc(OC)cc3)C2)c1 (stereo not given)	11.2 µM [rising, partial curve, poor fit]	25.1 µM [rising, single point]
C=C(NC(=O)C(=C)NC(=O)c1csc(C2=N[C@@H]3c4csc(n4)[C@@H]4NC(=O)c5csc(n5)[C@@H]([C@](C)(O)[C@H](C)O)NC(=O)[C@@H]5CSC(=N5)/C(=C/C)NC(=O)[C@@H]([C@H](C)O)NC(=O)c5csc(n5)[C@]3(CC2)NC(=O)[C@@H](C)NC(=O)C(=C)NC(=O)[C@@H](C)NC(=O)[C@@H]([C@@H](C)CC)N[C@H]2C=Cc3c([C@H](C)O)cc(nc3[C@@H]2O)C(=O)O[C@H]4C)n1)C(N)=O	7.94 µM [rising, partial curve]	14.1 µM [falling, single point]
CCOc1ncccc1C(=O)NCc1ccc(OC)c(OC)c1	–	12.6 µM [rising, partial curve, poor fit]
Cc1cc(C)c(S(=O)(=O)NCCCn2ccnc2)c(C)c1	–	20 µM [rising, single point]
COc1ccccc1CNC(=O)C1CCN(Cc2nc(-c3cccc(Cl)c3)oc2C)CC1	10 µM [rising, partial curve]	10 µM [rising, partial curve, poor fit]
COC(=O)c1cc(CSc2nnc(-c3ccccc3)c(-c3ccccc3)n2)oc1C	11.2 µM [rising, partial curve, poor fit]	15.8 µM [rising, partial curve]
CCn1nc(C)c(C(=O)Nc2cc(Oc3cc(C)cc(C)c3)cc([N+](=O)[O-])c2)c1C	–	35.5 µM [rising, single point]
FC(F)(F)c1cc(-c2ccccc2)nc(NCc2cccs2)n1	11.2 µM [rising, single point]	22.4 µM [rising, single point]
COc1cccc(Cn2c(=O)c(-c3cccs3)nc3cnc(N4CCNCC4)nc32)c1	15.8 µM [falling, partial curve]	14.1 µM [falling, partial curve]
CCOC(=O)C1=C(CNCCc2ccc(Cl)cc2)NC(=O)NC1c1ccc2c(c1)OCO2 (stereo not given)	–	35.5 µM [rising, single point]
CCCCCC[C@@H]([C@@H](C)O)n1cnc2c(N)ncnc21	–	28.2 µM [rising, single point]
c1ccc2c(c1)nnn2-c1ncnc2sccc12	–	25.1 µM [falling, single point]
N#Cc1nc(Cc2ccccc2)oc1NCCc1ccccc1	8.91 µM [rising, partial curve]	12.6 µM [rising, single point]
COc1ccc(C(Cl)=C(c2ccc(OC)cc2)c2ccc(OC)cc2)cc1	3.98 µM [falling, partial curve] and 0.794 nM [falling, full curve, poor fit]	282 nM [falling, single point] and 7.94 µM [rising, partial curve]
CC1CCc2cc(F)ccc2N1C(=O)CSc1nnc2c(n1)[nH]c1ccc(F)cc12 (stereo not given)	15.8 µM [falling, single point]	0.0316 µM [falling, single point]
O=C(Oc1c(-c2ccccc2Cl)oc2ccccc2c1=O)c1ccc(Cl)cc1	35.5 µM [rising, single point]	35.5 µM [rising, single point]
Cc1oncc1C(=O)Nc1ccc(C(F)(F)F)cc1	10 nM [falling, full curve, poor fit] and 3.98 nM [falling, full curve, poor fit]	0.00316 µM [falling, full curve, poor fit]
Cc1cccc(Cn2c(NCC(C)O)nc3c2c(=O)n(C)c(=O)n3C)c1 (stereo not given)	–	22.4 µM [rising, single point]
Cc1ccc(C2=[N+]([O-])C(C)(C)N(O)C2(C)C)cc1	–	12.6 µM [falling, single point]
NC(C(=O)N[C@@H]1C(=O)N2C(C(=O)O)=C(Cl)CS[C@H]12)c1ccccc1 (stereo not given in full)	–	0.158 µM [rising, full curve, poor fit]
CCOC(=O)c1c(N)sc2c1CCN(Cc1ccccc1)C2	–	11.2 µM [rising, partial curve, poor fit]
COc1ccccc1NS(=O)(=O)c1cc(NC(=O)C2CC2)ccc1N1CCOCC1	–	8.91 µM [rising, partial curve, poor fit]
O=C(c1ccc(NC(=S)Nc2ccc(F)cc2F)cc1)N1CCOCC1	–	2.82 µM [falling, partial curve, poor fit]
Fc1cccc2sc(Nc3nc4ccccc4s3)nc12	2 µM [rising, single point]	11.2 µM [rising, partial curve]
COc1ccc2c(-c3ccccc3)cc(SCC(=O)N(C)C3CCS(=O)(=O)C3)nc2c1 (stereo not given)	–	12.6 µM [rising, partial curve]
O=C(N/N=C/C(Br)=C/c1ccccc1)c1cccs1	1.78 µM [falling, partial curve]	1.78 µM [falling, partial curve]

SMILES	AC50 [1]	AC50 [2]
CCCCCCNC(=O)Nc1ccccc1	17.8 µM [rising, partial curve, poor fit]	–
CN(C)C(CNC(=O)c1ccc(S(=O)(=O)N(C)C)cc1)Cc1ccccc1 (stereo not given)	–	1.78 µM [falling, partial curve]
Cn1ncc2c(NNC(=O)c3ccc(Cl)c(Cl)c3)ncnc21	–	10 µM [rising, partial curve]
CCN(CC)C(=O)Oc1ccnc2cc(Cl)ccc12	12.6 µM [falling, partial curve, poor fit]	–
O=C(O)c1cccnc1Nc1cccc(C(F)(F)F)c1	14.1 µM [falling, single point]	–
Clc1cccc(NCc2nnc(SCc3ccc(Cl)cc3Cl)o2)c1	35.5 µM [rising, single point]	25.1 µM [rising, single point]
N#Cc1ccccc1NC(=O)C(=O)NCC(c1cccnc1)N1CCN(c2ccccc2)CC1 (stereo not given)	–	35.5 µM [rising, single point]
CCCCOc1ccccc1NC(=O)Cn1c(-c2nonc2N)nc2ccccc21	35.5 µM [falling, single point]	1.26 µM [rising, full curve]
Cc1ccc(-c2c(=O)n(OCc3ccccn3)c3ccccc3[n+]2[O-])cc1	–	0.1 µM [falling, partial curve, poor fit]
Cc1cc2oc(=O)cc(CSc3nnc(C)n3N)c2cc1C(C)C	–	0.00316 µM [falling, full curve, poor fit]
COc1cccc(COCCN2CCN(S(=O)(=O)c3ccc(C)cc3)CCC2=O)c1	–	12.6 µM [rising, single point]
c1cncc(-c2nc(Oc3ccc(-c4nnco4)cc3)c3c4c(sc3n2)CCCC4)c1	–	0.126 µM [falling, partial curve]
Cc1cc(C)n(-c2nc3ccccc3c(=O)n2OCC(=O)OCc2ccccc2)n1	–	15.8 µM [rising, partial curve]
CC1CC(OC(=O)C(O)c2ccccc2)CC(C)(C)C1 (stereo not given)	0.00158 µM [falling, full curve, poor fit]	22.4 µM [falling, single point]
Cc1cc[n+](CC(=O)c2ccc(NC(=O)c3ccccc3)cc2)cc1	–	14.1 µM [falling, partial curve, poor fit]
Cc1cccc(N(C(=O)c2nsc(Cl)c2Cl)C(C(=O)NC2CCCC2)c2ccc(O)cc2)c1 (stereo not given)	–	17.8 µM [rising, partial curve, poor fit]
Cc1cc(NCCCCO)n2c(nc3ccccc32)c1C#N	–	7.08 µM [rising, full curve, poor fit]
CCOC1(OCC)C(c2ccc(Cl)cc2)C(C#N)(C#N)C1(OCC)OCC (stereo not given)	5.01 µM [falling, partial curve]	–
CC(C)C(C(=O)Nc1nccs1)c1ccccc1 (stereo not given)	15.8 µM [rising, partial curve, poor fit]	8.91 µM [rising, partial curve, poor fit]
COc1ccc(C(=O)Nc2ccc(-c3cc(C(F)(F)F)nn3-c3ccccc3)cc2)cc1OC	1.58 µM [falling, partial curve, poor fit]	–
CN(C(=O)CCCN1C(=O)c2cccc3cccc(c23)C1=O)c1ccccc1	–	3.98 µM [rising, partial curve, poor fit]
CCc1[nH]nc2c1C(C1C=CCCC1)C(C#N)=C(N)O2 (stereo not given)	8.91 µM [falling, partial curve]	–
CCOC(=O)c1[nH]c(C)c(C(=O)C(C)C)c1C	–	0.112 µM [falling, full curve, poor fit]
COc1ccc(-c2nn(-c3ccc(F)cc3F)c3c2cnc2ccc(F)cc23)cc1	–	14.1 µM [falling, partial curve, poor fit]
O=C(/C=C/c1ccc(Cl)cc1Cl)N1CCN(c2ccccc2[N+](=O)[O-])CC1	12.6 µM [rising, single point]	20 µM [rising, single point]
CC(C)NC(=O)COC(=O)/C=C/c1ccc(F)cc1	–	0.0891 µM [rising, full curve, poor fit]
